## Assay results

Source: PubChem BioAssay AID1159506 (NCATS, 2015).

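Luminescence from an EWS-FLI1 target-promoter (NR0B1) reporter, set against a CMV-promoter reporter, two days after silencing single genes in TC32 Ewing sarcoma cells.
Each siRNA was applied at 20 nM.
A z-score of the log NR0B1-over-CMV signal, less the median of siRNAs with the same seed; more negative means a stronger specific loss of the NR0B1 reporter.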

The strongest results of the screen are mostly left out here.
Sequences are the guide (antisense) strand, without overhang.

Sequence,target gene,seed-corrected z-score
UUAUACUUCUGAAUUAACC,ACTG1P20,-0.5188
UCUUGGGUUUGGGUGGUUU,NPIPB15,-0.2935
UUCCCUUAAGUAGUCAUGC,GIMAP4,-0.1552
AUACUAUCCGGUUAGCACC,LRP6,-0.006459
UUUGUUCCGAGUCUCGUAC,NLRP1,2.47
UCCAUUGUCUGUCAGAACC,DPT,-0.16
UUUGGGUAGAUGAGGACUG,GAS2L2,-0.2151
UCAUGUAGCGUAACGAUGU,CDK16,-0.3195
UUUUCGGUAAGUGUCUGCC,XRCC1,0.02112
UAUGGUUUUAUCCUUACUC,LRMP,1.023
UACAACUCUUUUGUCGUCC,RAB10,-1.191
AAAUGAACCAGACCGUGCC,ZNF580,0.3394
AUAGUCAUAAAUCUCGCUG,AXL,0.2424
UAUUUUCCCGGCUCGUCAG,LCN1,0.4721
UCUAUGGUCACCAGGUUCC,ANPEP,1.035
UACUUGGUCGCCAUAUUCU,LOC390877,-0.1918
AAGACUAUCAUUCCGGACG,YKT6,-0.5667
UCAGGAAUACUGUUAGGCC,CRB2,-0.8421
AAAUCUUCAACCCUGUUCC,ALKBH4,0.4299
UUUCAAUCUUGGAUCUUCC,NEDD4,0.7784
UGUACUACUAUCUGCAUUG,NUP43,-0.3059
AACCUUUGCUGAUUUGACC,RNF25,-0.6328
UAUCAUUAAAUUGUACCAC,ALDH5A1,0.08959
UCUGGGAAACUCUCUAUCA,CEACAM18,0.7792
UAACAGUAACCAUCCCUCC,TOX4,-0.1812
AUAGUUAUAAUAAGCCAGA,ACOT2,-0.3892
UCAUCGCCCACUAUCAUGU,LRRC75B,-0.377
UCUCUGAGCACUUGGACCC,ZSCAN1,0.7194
AACCACUUAAUAGUAAUCC,EPGN,-0.3524
AUAUGGAUACUUAAGGAGG,ZNF699,0.5869
UAUUGAGGGAUUCUAAUUG,CRBN,0.8594
AACUCGAAUAAUACCCUUG,PPP1R3A,-0.3874
UCAUGGAUGUUUAAGAUUG,PSME3,0.9756
AUCGGAACGAUAACUUCCG,FAT1,-0.01234
UUUGCGGUCAUUAUUGAUG,SMG9,-0.8096
UUCGUACUUAUUCUUGAAG,KRT7,-0.1155
UCUUGCCCACUUACCAUCC,DDI1,-0.6741
UUGCUGCACUUAUAAGUUC,ZNF547,0.36

Once more, the final 5:

Result for AUCGGAACGAUAACUUCCG against FAT1 was seed-corrected z-score -0.01234.
Result for UUUGCGGUCAUUAUUGAUG against SMG9 was seed-corrected z-score -0.8096.
Result for UUCGUACUUAUUCUUGAAG against KRT7 was seed-corrected z-score -0.1155.
Result for UCUUGCCCACUUACCAUCC against DDI1 was seed-corrected z-score -0.6741.
Result for UUGCUGCACUUAUAAGUUC against ZNF547 was seed-corrected z-score 0.36.